The nature of one data set: in vivo. The following applies: mouse, iv.
Data set [1] deals with disorders of cardiac rhythm provoked by aconitine in rats. The format is in vivo. The following applies: ED50 rat i.v. / LD50 mouse i.v. Here is the method:
When examining the antiarrhythmic effects, rats were pre-treated intravenously with 1 mg/kg of aconitine to provoke disorders of cardiac rhythm [Med. Exp. (Basel) 10, 93 (1964)], thereafter the test compound was administered intravenously, and the dose required to restore the rhythm in 50% (ED50 mg/kg) was determined.

For `CCN(CC)CC(=O)Nc1c(C)cccc1C` [Lidocaine, reference compound], the LD50 in the data set “in vivo” worked out at 28.5 mg/kg. The “Therap. index (ED50/LD50)” value in data set [1] amounted to 0.351.

Broadly, the LD50 is the dose at which mortality reaches 50%. High values mean a less toxic substance, low ones a more toxic substance.

(Values after patent US4451473A, “3,7-Diazabicyclo [3.3.1] nonanes having anti-arrhythmic activity” (Richter Gedeon Vegyeszeti Gyar Rt., priority 1981, dated 1984).)
